Assay results: paper PMC5341102

Tests used:
GST-OGT-1 (C. elegans) = biological target: T1, GST-OGT-1 (C. elegans) (UniProt O18158); assay: pull-down; GST or GST-OGT-1 purified from E. coli BL21(DE3), incubated with whole worm lysates of LD1(ldls7) and glutathione Sepharose 4B beads; extensive washes; western blotting with anti-GFP antibody; only the target purified
T1 sequence: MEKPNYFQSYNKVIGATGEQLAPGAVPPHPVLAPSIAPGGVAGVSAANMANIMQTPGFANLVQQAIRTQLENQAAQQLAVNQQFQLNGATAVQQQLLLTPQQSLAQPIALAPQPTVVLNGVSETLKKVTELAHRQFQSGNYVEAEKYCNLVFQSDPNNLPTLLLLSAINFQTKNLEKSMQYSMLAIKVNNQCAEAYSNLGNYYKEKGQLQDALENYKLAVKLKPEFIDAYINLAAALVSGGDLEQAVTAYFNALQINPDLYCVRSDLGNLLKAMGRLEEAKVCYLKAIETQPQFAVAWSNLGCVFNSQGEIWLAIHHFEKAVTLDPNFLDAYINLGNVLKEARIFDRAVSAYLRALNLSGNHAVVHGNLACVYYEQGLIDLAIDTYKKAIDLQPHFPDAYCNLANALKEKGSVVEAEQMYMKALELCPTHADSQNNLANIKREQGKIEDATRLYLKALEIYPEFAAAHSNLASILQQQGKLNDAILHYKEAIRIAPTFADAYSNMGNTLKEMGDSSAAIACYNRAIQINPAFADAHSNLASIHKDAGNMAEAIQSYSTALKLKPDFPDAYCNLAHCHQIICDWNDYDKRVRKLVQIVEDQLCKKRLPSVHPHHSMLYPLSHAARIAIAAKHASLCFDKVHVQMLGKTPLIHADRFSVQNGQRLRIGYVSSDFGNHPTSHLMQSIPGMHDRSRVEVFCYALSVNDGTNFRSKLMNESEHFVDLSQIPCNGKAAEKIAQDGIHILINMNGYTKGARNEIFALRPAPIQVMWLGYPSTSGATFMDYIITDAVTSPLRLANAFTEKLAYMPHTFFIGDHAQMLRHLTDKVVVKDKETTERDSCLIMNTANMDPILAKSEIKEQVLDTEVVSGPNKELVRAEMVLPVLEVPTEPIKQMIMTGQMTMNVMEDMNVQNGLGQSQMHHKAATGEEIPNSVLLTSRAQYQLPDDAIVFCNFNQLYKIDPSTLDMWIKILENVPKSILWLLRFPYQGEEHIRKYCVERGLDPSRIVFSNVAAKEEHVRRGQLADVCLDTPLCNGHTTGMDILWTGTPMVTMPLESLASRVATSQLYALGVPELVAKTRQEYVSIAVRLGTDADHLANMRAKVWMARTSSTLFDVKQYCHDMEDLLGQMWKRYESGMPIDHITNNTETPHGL

[1] = biological target: SKN-1(B/C)::GFP (C. elegans); assay: co-IP; whole extracts of SKN-1B/C::GFP worms (with or without tBHP treatment) immunoprecipitated with anti-GFP antibody overnight at 4 °C, protein A/G magnetic beads; lysis buffer 50 mM Tris-HCl pH 7.5, 150 mM NaCl, 1 mM EDTA, 0.5% NP-40; immunoblotting with anti-OGT antibody; IgG as negative control

Molecule: SKN-1(B/C)::GFP (C. elegans)
binding (GST-OGT-1 (C. elegans)): binds

binding [1]: binds
B1: OGT-1 (enzyme, UniProt O18158 1-1151)
chain: T1 sequence

Results are given in words; binding and its absence hold for the method and conditions named. In cells and extracts the contact can be indirect. Binding calls can cover weak binding; strength is not graded here. For some assays here: Sequences can lack the tags named with a protein. One block for each molecule: values may come before it.
